According to PMC7600810:
No constants are given. Whether binding was seen depends on the method and setting. In cells and extracts the contact can be indirect. Some binding calls cover weakened binding; strength is not graded here. Tags and fused reporters may be left off the sequences shown.

The chains behind the UniProt entries cited, without tags or fusion partners.
UniProt Q9UBN7: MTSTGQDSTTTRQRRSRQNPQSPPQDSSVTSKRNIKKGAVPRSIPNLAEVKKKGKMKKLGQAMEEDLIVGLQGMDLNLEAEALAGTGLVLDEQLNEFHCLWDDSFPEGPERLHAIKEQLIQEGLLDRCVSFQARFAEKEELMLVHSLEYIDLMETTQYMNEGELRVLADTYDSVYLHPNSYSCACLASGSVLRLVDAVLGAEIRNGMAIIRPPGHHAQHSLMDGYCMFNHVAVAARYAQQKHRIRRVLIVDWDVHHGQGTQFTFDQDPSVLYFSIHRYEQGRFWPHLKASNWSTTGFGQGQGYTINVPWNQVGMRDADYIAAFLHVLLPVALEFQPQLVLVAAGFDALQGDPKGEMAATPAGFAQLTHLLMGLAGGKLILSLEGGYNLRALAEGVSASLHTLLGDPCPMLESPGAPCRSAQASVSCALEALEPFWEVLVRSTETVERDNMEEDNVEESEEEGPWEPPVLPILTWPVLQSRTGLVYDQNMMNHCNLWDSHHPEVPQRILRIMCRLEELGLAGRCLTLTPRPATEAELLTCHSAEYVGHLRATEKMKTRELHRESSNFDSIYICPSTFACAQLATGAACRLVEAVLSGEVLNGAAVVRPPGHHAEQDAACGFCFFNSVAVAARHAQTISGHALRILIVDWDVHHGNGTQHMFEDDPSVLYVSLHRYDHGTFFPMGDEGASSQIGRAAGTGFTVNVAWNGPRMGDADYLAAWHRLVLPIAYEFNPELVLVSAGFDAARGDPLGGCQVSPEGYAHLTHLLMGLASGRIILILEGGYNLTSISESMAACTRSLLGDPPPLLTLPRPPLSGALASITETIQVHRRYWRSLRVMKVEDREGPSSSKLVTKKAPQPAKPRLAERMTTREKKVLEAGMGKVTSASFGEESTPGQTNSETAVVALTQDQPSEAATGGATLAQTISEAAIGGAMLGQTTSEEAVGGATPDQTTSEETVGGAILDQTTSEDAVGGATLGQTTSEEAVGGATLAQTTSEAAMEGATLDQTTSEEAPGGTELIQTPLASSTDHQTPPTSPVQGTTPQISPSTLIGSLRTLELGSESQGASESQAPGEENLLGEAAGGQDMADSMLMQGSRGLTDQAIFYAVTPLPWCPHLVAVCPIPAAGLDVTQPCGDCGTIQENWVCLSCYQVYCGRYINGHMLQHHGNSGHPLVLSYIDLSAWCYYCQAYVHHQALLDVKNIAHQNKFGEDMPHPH

Molecular target: Flag-HDAC6, full length (1-1215) (UniProt Q9UBN7)
Assay: co-IP; Flag-tagged HDAC6 constructs and Myc-tagged Chk1 constructs co-transfected into 293T cells, 48 h; lysates pulled down for Flag

B1: Myc-Chk1(1–264) (domain or fragment, UniProt O14757 1-264)
chain: MAVPFVEDWDLVQTLGEGAYGEVQLAVNRVTEEAVAVKIVDMKRAVDCPENIKKEICINKMLNHENVVKFYGHRREGNIQYLFLEYCSGGELFDRIEPDIGMPEPDAQRFFHQLMAGVVYLHGIGITHRDIKPENLLLDERDNLKISDFGLATVFRYNNRERLLNKMCGTLPYVAPELLKRREFHAEPVDVWSCGIVLTAMLAGELPWDQPSDSCQEYSDWKEKKTYLNPWKKIDSAPLALLHKILVENPSARITIPDIKKDRW
binding: binds

B2: Myc-Chk1 (265–476) (domain or fragment, UniProt O14757 265-476)
chain: YNKPLKKGAKRPRVTSGGVSESPSGFSKHIQSNLDFSPVNSASSEENVKYSSSQPEPRTGLSLWDTSPSYIDKLVQGISFSQPTCPDHMLLNSQLLGTPGSSQNPWQRLVKRMTRFFTKLDADKSYQCLKETCEKLGYQWKKSCMNQVTISTTDRRNNKLIFKVNLLEMDDKILVDFRLSKGDGLEFKRHFLKIKGKLIDIVSSQKIWLPAT
binding: binds
